Measured values: patent publication US10538443B2, “Method of degradation and inactivation of antibiotics in water by immobilized enzymes onto functionalized supports” (Luxembourg Institute of Science and Technology (LIST), priority 2014, dated 2020)

System: Vibrio fischeri
Conditions: 80 μg·mL^−1
Protocol: For this, the tests were carried out on the degradation media before (T0) and after metabolization by enzymes immobilized on PGMA and DOPA functionalized Kaldnes after 30 min, 1 h and 24 h of contact.
The tests are performed with the maximum volume of test solution that can be provided and defined by the standards cited earlier. The results are expressed as a percentage of growth inhibition for algae and Daphnia test, as percentage of light emission inhibition for the Microtox test and as percentage of cell viability inhibition for cytotoxicity tests.

In the case of Cc1cc(NS(=O)(=O)c2ccc(N)cc2)no1 [sulfamethoxazole], the “Percentage of inhibition, Microtox” value is reported as 11 ± 2%.
